Test results as given in the supplement of paper PMC10849652.
This is one part of the list.

Amino acid sequences for entries named in this document (tags omitted). A change or cut given only in a name is not applied to a line headed by its entry.
UniProt Q93008, whole entry, looked up: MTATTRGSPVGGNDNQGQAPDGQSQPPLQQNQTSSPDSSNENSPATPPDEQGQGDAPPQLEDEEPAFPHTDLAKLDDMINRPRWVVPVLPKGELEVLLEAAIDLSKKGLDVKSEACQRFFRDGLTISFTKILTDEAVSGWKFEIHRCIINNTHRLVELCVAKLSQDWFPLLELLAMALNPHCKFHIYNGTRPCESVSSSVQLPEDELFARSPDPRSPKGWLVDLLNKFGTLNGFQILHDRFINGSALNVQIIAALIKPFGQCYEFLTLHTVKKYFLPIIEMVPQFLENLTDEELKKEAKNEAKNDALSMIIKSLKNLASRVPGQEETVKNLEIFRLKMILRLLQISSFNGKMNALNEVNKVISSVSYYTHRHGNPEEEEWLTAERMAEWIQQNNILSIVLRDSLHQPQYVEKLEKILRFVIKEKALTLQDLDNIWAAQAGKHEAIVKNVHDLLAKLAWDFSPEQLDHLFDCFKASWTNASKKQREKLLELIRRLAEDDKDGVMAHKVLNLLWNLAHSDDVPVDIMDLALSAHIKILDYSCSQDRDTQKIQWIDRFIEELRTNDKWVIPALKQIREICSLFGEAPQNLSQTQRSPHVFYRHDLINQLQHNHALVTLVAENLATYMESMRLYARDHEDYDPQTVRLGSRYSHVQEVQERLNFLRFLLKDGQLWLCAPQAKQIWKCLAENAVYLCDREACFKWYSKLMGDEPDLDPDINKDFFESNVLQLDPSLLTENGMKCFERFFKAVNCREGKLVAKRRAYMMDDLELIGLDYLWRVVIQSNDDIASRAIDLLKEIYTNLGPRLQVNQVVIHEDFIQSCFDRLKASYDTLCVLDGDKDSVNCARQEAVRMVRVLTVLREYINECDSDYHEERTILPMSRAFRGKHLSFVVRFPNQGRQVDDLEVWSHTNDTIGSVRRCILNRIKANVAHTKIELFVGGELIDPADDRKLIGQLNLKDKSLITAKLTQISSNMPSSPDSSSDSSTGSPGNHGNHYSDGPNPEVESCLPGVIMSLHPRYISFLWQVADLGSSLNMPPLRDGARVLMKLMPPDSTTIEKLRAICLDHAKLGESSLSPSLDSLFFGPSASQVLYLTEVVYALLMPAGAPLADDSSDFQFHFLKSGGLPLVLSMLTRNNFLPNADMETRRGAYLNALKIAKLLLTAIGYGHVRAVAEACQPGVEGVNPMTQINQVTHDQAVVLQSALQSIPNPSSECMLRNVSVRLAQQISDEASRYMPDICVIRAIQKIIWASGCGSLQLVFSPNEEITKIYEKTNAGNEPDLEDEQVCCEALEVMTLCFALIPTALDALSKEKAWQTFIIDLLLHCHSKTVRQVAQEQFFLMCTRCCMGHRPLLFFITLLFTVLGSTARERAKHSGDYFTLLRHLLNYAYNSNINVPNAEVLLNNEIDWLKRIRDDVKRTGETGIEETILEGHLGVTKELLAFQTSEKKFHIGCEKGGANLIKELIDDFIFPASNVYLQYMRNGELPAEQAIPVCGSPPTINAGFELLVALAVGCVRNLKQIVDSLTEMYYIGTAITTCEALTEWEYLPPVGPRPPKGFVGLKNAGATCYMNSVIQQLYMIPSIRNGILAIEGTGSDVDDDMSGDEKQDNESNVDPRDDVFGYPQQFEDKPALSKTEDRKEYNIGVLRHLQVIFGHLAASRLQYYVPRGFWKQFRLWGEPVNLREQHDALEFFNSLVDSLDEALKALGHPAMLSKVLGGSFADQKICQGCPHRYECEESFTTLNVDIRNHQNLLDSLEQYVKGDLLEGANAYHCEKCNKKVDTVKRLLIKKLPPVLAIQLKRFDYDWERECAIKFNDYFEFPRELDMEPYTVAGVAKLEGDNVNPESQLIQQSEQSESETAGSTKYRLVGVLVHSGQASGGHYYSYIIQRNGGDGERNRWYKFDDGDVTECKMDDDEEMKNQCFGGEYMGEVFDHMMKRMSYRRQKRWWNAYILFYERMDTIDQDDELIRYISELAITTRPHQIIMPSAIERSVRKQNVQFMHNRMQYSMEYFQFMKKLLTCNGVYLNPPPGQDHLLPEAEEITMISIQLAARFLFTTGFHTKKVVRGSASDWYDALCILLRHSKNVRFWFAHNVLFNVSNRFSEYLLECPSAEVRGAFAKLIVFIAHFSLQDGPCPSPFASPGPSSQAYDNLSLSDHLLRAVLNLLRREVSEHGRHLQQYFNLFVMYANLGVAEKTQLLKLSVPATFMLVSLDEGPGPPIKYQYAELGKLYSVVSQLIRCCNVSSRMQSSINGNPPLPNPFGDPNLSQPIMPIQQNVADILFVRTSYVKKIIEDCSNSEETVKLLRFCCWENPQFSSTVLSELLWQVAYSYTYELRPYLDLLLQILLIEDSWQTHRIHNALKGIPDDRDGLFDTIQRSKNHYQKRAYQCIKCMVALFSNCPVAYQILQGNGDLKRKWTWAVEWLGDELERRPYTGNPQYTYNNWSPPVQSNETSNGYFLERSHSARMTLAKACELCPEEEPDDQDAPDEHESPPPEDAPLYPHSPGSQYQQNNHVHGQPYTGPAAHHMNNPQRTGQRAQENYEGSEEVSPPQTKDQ
UniProt Q92738: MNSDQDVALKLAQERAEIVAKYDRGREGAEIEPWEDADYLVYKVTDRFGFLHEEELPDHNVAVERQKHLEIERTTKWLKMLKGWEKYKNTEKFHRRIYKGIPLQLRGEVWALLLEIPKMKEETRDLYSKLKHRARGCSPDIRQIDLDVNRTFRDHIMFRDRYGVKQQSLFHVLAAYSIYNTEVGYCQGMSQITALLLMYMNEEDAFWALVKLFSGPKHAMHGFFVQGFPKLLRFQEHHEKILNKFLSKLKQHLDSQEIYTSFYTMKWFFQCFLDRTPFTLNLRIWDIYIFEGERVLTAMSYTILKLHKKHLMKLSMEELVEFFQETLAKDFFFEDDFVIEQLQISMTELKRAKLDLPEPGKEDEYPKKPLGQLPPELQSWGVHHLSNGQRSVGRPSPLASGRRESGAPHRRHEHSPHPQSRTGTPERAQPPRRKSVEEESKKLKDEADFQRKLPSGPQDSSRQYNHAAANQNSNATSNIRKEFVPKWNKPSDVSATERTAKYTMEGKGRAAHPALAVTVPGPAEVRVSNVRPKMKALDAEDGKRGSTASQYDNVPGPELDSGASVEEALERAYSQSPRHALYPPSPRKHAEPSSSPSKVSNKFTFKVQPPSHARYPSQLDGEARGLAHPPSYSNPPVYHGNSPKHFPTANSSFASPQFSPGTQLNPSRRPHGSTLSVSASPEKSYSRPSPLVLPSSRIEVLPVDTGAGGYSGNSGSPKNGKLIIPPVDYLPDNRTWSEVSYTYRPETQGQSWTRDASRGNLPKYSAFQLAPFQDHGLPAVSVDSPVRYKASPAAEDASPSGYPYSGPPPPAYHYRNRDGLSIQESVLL
UniProt P63027, whole entry, looked up: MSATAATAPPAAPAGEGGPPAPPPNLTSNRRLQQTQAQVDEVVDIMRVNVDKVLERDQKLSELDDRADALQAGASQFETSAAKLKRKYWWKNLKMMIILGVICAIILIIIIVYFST
UniProt Q8TED0: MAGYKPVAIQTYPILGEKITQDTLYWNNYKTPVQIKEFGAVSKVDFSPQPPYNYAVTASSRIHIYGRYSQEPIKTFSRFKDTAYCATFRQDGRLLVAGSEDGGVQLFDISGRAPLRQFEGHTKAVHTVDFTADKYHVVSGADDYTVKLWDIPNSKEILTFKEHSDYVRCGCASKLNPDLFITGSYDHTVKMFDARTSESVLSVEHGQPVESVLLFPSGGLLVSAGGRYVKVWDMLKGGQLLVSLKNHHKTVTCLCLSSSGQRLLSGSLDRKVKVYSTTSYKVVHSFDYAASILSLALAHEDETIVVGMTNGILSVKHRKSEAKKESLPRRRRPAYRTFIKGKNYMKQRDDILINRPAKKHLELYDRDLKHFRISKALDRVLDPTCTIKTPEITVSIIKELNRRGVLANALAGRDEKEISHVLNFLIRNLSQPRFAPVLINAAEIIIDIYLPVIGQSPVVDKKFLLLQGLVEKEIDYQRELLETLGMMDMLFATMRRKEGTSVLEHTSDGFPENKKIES
UniProt P11441: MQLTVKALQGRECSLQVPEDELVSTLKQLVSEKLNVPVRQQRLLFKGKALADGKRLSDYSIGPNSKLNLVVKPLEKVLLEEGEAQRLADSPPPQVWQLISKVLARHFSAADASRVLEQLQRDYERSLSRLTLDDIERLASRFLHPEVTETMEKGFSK
UniProt Q9NWZ5: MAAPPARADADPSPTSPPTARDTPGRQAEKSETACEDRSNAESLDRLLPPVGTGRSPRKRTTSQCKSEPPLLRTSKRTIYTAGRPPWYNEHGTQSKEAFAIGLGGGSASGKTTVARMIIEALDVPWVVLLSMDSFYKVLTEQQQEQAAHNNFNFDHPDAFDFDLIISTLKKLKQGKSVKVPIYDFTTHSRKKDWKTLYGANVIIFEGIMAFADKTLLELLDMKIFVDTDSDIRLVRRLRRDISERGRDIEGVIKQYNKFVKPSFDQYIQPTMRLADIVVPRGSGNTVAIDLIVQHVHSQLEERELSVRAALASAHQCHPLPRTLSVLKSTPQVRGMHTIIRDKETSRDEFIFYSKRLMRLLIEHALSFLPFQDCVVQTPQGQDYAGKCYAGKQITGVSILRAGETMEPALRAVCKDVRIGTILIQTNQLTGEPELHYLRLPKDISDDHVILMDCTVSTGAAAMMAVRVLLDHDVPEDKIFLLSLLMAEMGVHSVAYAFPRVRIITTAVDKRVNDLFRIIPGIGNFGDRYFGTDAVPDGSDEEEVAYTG
UniProt Q9BZL1: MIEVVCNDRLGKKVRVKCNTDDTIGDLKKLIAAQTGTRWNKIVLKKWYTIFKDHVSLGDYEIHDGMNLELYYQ
UniProt Q9P2Y5: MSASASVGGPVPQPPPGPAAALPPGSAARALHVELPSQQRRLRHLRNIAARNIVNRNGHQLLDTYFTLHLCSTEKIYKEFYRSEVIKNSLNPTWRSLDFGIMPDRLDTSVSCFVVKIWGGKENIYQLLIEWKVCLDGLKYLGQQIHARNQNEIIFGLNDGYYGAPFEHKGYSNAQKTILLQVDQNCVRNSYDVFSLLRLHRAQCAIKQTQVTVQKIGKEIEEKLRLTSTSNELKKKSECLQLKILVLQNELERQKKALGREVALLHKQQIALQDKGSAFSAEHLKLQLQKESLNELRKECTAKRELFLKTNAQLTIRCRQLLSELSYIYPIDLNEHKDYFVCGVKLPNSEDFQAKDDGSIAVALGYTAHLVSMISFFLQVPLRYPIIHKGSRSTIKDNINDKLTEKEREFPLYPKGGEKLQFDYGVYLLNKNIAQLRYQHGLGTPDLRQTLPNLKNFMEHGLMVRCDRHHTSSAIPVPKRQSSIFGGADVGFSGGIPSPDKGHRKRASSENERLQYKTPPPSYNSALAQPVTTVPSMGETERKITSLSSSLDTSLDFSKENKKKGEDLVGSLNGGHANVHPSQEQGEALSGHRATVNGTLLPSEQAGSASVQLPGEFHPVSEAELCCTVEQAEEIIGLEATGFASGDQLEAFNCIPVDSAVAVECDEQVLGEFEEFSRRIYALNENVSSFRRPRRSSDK
UniProt O14949: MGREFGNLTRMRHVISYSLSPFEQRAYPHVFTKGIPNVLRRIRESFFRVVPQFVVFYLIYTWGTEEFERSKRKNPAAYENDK
UniProt O60701: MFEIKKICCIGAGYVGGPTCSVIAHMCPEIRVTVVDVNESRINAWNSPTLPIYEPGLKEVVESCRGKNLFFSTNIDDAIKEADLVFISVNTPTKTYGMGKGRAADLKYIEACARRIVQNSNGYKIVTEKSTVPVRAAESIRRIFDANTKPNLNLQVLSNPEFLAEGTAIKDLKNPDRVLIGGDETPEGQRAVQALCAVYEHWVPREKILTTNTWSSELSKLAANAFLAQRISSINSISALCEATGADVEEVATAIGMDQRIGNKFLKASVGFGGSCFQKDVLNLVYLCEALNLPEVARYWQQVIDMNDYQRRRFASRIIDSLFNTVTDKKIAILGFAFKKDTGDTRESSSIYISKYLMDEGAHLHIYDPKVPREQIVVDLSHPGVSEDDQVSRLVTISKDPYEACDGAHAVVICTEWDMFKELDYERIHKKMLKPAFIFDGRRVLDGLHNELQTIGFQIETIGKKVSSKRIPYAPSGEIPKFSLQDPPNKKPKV
UniProt Q8WVY7: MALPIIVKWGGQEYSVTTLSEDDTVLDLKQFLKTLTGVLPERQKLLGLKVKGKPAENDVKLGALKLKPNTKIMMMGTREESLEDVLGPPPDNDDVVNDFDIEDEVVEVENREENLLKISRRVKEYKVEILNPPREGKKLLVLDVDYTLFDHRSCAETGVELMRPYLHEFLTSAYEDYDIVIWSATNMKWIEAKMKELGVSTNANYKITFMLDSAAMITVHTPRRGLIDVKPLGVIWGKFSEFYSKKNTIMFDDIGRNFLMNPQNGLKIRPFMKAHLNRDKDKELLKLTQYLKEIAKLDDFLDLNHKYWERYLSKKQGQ
UniProt Q9UBK9, whole entry, looked up: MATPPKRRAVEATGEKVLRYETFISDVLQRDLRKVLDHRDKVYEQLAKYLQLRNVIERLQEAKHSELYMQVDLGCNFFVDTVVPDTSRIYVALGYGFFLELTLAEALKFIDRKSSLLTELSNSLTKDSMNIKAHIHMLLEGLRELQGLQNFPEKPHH

The targets below were run with CNc1nc(-c2ccc3c(N)n[nH]c3c2)cc(N2C[C@@H](C(=O)NC3CCCCC3)CC[C@H]2C)n1 (assay: log2 fold change, soluble protein after heating vs DMSO (PISA); higher = thermal stabilisation; K562 cells, 10 uM, 30 min; active = over 0.2 and 3.5 SD of the protein, either way, in both replicates (recomputed)).
Outline: (§1)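 K562 cells at 2×10^6 cells/mL were treated with 10 μM compound for 30 min. Aliquots were heated for 3 min across 48°C-58°C, pooled, and extracted in PBS with 0.5% NP-40 at 4°C; soluble protein was the supernatant after 21,000xg for 90 min. Soluble protein was quantified by TMTpro 16plex LC-MS/MS with channel sums equalised, and reported as log2 fold change in thermal stability against DMSO controls, with values from duplicates.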

log2 fold change, inactive:
UMPS (UniProt P11172) 0.006
USP9X (UniProt Q93008) -0.003
UBXN7 (UniProt O94888) -0.036
USP6NL isoform 2 (UniProt Q92738) -0.03
UBQLN1 (UniProt Q9UMX0) -0.013
USP22 (UniProt Q9UPT9) -0.046
UGT8 (UniProt Q16880) -0.008
VAMP2 (UniProt P63027) 0.135
UXS1 isoform 2 (UniProt Q8NBZ7) 0.013
VCP (UniProt P55072) -0.015
USP19 isoform 6 (UniProt O94966) -0.029
UTP15 (UniProt Q8TED0) 0.067
UBL4A (UniProt P11441) 0.006
UBE3C (UniProt Q15386) 0.011
VAMP4 (UniProt O75379) -0.08
UQCC1 (UniProt Q9NVA1) -0.033
UCKL1 (UniProt Q9NWZ5) -0.005
UQCRB (UniProt P14927) -0.057
VARS (UniProt P26640) 0.012
UBL5 (UniProt Q9BZL1) -0.053
USP20 (UniProt Q9Y2K6) 0.087
USP30 (UniProt Q70CQ3) -0.094
UPRT (UniProt Q96BW1) -0.001
UPF3B (UniProt Q9BZI7) 0.035
VAMP7 (UniProt P51809) -0.022
UVRAG (UniProt Q9P2Y5) -0.022
UFSP2 (UniProt Q9NUQ7) 0.046
UQCRQ (UniProt O14949) -0.013
USP15 (UniProt Q9Y4E8) 0.019
UBQLN2 (UniProt Q9UHD9) -0.003
UGDH (UniProt O60701) 0.074
UQCRC2 (UniProt P22695) -0.01
UNC93B1 (UniProt Q9H1C4) 0.039
USP7 (UniProt Q93009) 0.152
UBQLN3 (UniProt Q9H347) -0.036
UCHL3 (UniProt P15374) -0.024
VBP1 (UniProt P61758) -0.034
UPF1 (UniProt Q92900) -0.002
UBLCP1 (UniProt Q8WVY7) -0.038
UXT isoform 2 (UniProt Q9UBK9) -0.027

Each target was assayed with COC(=O)N[C@@H](C)CNc1nccc(-c2cn(C(C)C)nc2-c2cc(Cl)cc(NS(C)(=O)=O)c2F)n1 [encorafenib] in the same assay as above.
Outline: as §1

log2 fold change, inactive:
UMPS (UniProt P11172) -0.001
USP9X (UniProt Q93008) 0.082
UBXN7 (UniProt O94888) -0.011
USP6NL isoform 2 (UniProt Q92738) -0.154
UBQLN1 (UniProt Q9UMX0) -0.032
USP22 (UniProt Q9UPT9) 0.002
UGT8 (UniProt Q16880) 0.07
VAMP2 (UniProt P63027) 0.057
UXS1 isoform 2 (UniProt Q8NBZ7) 0.003
VCP (UniProt P55072) -0.013
USP19 isoform 6 (UniProt O94966) 0.015
UTP15 (UniProt Q8TED0) 0.142
UBL4A (UniProt P11441) 0.004
UBE3C (UniProt Q15386) 0.034
VAMP4 (UniProt O75379) -0.054
UQCC1 (UniProt Q9NVA1) -0.023
UCKL1 (UniProt Q9NWZ5) 0.022
UQCRB (UniProt P14927) -0.008
VARS (UniProt P26640) 0.08
UBL5 (UniProt Q9BZL1) 0.011
USP20 (UniProt Q9Y2K6) 0.248
USP30 (UniProt Q70CQ3) -0.064
UPRT (UniProt Q96BW1) -0.041
UPF3B (UniProt Q9BZI7) 0.108
VAMP7 (UniProt P51809) 0.029
UVRAG (UniProt Q9P2Y5) -0.077
UFSP2 (UniProt Q9NUQ7) 0.02
UQCRQ (UniProt O14949) -0.045
USP15 (UniProt Q9Y4E8) 0.061
UBQLN2 (UniProt Q9UHD9) 0
UGDH (UniProt O60701) 0.087
UQCRC2 (UniProt P22695) -0.035
UNC93B1 (UniProt Q9H1C4) -0.046
USP7 (UniProt Q93009) 0.057
UBQLN3 (UniProt Q9H347) -0.266
UCHL3 (UniProt P15374) 0.028
VBP1 (UniProt P61758) -0.028
UPF1 (UniProt Q92900) 0.005
UBLCP1 (UniProt Q8WVY7) 0.088
UXT isoform 2 (UniProt Q9UBK9) -0.018
